Counter-ions that a name gives are not always drawn. This is one part of the list. Most values come without repeats; read them as rough.
test system: M238P (parental melanoma line); test: reduction in cell viability relative to untreated/vehicle; higher = more growth inhibition; details: 200 nM; 72 h

Q: For `CCC[C@@H]1C[C@@H](C(=O)N[C@@H]([C@H]2O[C@H](SC)[C@H](O)[C@@H](O)[C@H]2O)[C@H](C)Cl)N(C)C1` [Clindamycin hydrochloride], which “reduction in cell viability” value is on record?
A: < 0%

Q: `CCCCOc1ccc(CC(=O)NO)cc1` [Bufexamac] was tested. Which “reduction in cell viability” value did it give?
A: < 0%

Q: For `CCCCCNC(=O)N1CCC(CN(Cc2ccc(Cl)cc2)Cc2ccc([N+](=O)[O-])s2)C1` (stereo not drawn), which “reduction in cell viability” value is on record?
A: < 0%

Q: How did the “reduction in cell viability” value turn out when `NC(=O)c1cccc(-c2cccc(OC(=O)NC3CCCCC3)c2)c1` was run?
A: < 0%

Q: Which “reduction in cell viability” value does the source give for `COC1=C2C[C@@H](C)C[C@H](OC)[C@H](O)[C@@H](C)/C=C(\C)[C@H](OC(N)=O)[C@@H](OC)/C=C\C=C(/C)C(=O)NC(=CC1=O)C2=O` [Geldanamycin] here?
A: 51.7%

Q: With `Cn1cc(/C=C/C(=O)c2cccc(F)c2)cc1/C=C/C(=O)NO` as the compound, how does the “reduction in cell viability” value read?
A: < 0%

Q: `Clc1ccc(CCC(Cn2ccnc2)Sc2c(Cl)cccc2Cl)cc1` (stereo not drawn) [Butoconazole nitrate] was tested. Which “reduction in cell viability” value did it give?
A: < 0%

Q: How did the “reduction in cell viability” value turn out when `CCOc1ccc(Nc2nc(-c3c(C)nc4ccccn34)cs2)cc1` was run?
A: 64.5%

Q: `Nc1nc(=O)n([C@H]2C[C@H](O)[C@@H](CO)O2)cc1F` was tested. Which “reduction in cell viability” value did it give?
A: 13.3%

Q: `C=CC(=O)N1CCC[C@@H](n2nc(-c3ccc(Oc4ccccc4)cc3)c3c(N)ncnc32)C1` was tested. Which “reduction in cell viability” value did it give?
A: < 0%

Q: For `O=C1CCCC(=O)C1C(=O)c1ccc(C(F)(F)F)cc1[N+](=O)[O-]` [Nitisinone], which “reduction in cell viability” value is on record?
A: < 0%

Q: How did the “reduction in cell viability” value turn out when `CCn1c(-c2nonc2N)nc2cnc(Oc3cccc(NC(=O)c4ccc(OCCN5CCOCC5)cc4)c3)cc21` was run?
A: < 0%

Q: How did the “reduction in cell viability” value turn out when `CC[C@H](CO)Nc1nc(NCc2ccccc2)c2ncn(C(C)C)c2n1` [Seliciclib] was run?
A: < 0%

Q: With `CCOC(=O)N1CCN(/[N+]([O-])=N/Oc2cc(O/N=[N+](\[O-])N3CCN(C(=O)OCC)CC3)c([N+](=O)[O-])cc2[N+](=O)[O-])CC1` [Double JS-K] as the compound, how does the “reduction in cell viability” value read?
A: < 0%

Q: How did the “reduction in cell viability” value turn out when `CN(Cc1cc(Br)cc(Br)c1N)C1CCCCC1` [Bromhexine hydrochloride] was run?
A: < 0%

Q: With `Fc1cc(-c2cccc3ncc(-c4cnn(C5CCNCC5)c4)nc23)cc(F)c1CN1CCOCC1` as the compound, how does the “reduction in cell viability” value read?
A: < 0%

Q: `COc1ccc(-n2nc(C(N)=O)c3c2C(=O)N(c2ccc(N4CCCCC4=O)cc2)CC3)cc1` [Apixaban] was tested. Which “reduction in cell viability” value did it give?
A: < 0%

Q: With `CCCCC(F)(F)[C@@]1(O)CC[C@H]2[C@@H](CC(=O)[C@@H]2CCCCCCC(=O)O)O1` [Lubiprostone] as the compound, how does the “reduction in cell viability” value read?
A: < 0%

Q: `CC[C@]1(O)C[C@@H]2CN(CCc3c([nH]c4ccccc34)[C@@](C(=O)OC)(c3cc4c(cc3OC)N(C)[C@H]3[C@@](O)(C(=O)OC)[C@H](OC(C)=O)[C@]5(CC)C=CCN6CC[C@]43[C@@H]65)C2)C1` [Vinblastine] was tested. Which “reduction in cell viability” value did it give?
A: 57%

Q: How did the “reduction in cell viability” value turn out when `CCN(CC)CCOc1ccc(C(=C(Cl)c2ccccc2)c2ccccc2)cc1` [Clomifene citrate] was run?
A: < 0%

Q: For `CCN(CC)CCCCNc1nc2cc(Cl)c(Cl)cc2nc1-c1ccc(-c2cccs2)s1`, which “reduction in cell viability” value is on record?
A: < 0%

Q: With `NNCCc1ccccc1` [Phenelzine] as the compound, how does the “reduction in cell viability” value read?
A: < 0%

Q: For `C[C@H](NC(=O)Cc1cc(F)cc(F)c1)C(=O)N[C@@H]1C(=O)N(C)c2ccccc2-c2ccccc21`, which “reduction in cell viability” value is on record?
A: < 0%

Q: Which “reduction in cell viability” value does the source give for `CCN(CC)CCCC(C)Nc1nc(C)cc(Nc2ccc3nc(C)cc(N)c3c2)n1` (stereo not drawn) here?
A: < 0%

Q: `Cc1cc2nc3c(=O)[nH]c(=O)nc-3n(C[C@H](O)[C@H](O)[C@H](O)CO)c2cc1C` was tested. Which “reduction in cell viability” value did it give?
A: < 0%

Q: With `Nc1ccn([C@@H]2O[C@H](CO)[C@@H](O)[C@H]2O)c(=O)n1` [Cytidine] as the compound, how does the “reduction in cell viability” value read?
A: < 0%

Q: How did the “reduction in cell viability” value turn out when `O=S(=O)(O)CCS` [Mesna] was run?
A: < 0%

Q: For `CNC(=O)c1cc(Oc2ccc(NC(=O)Nc3ccc(Cl)c(C(F)(F)F)c3)cc2)ccn1` [Sorafenib], which “reduction in cell viability” value is on record?
A: < 0%

Q: Which “reduction in cell viability” value does the source give for `O=C(c1ccc(Nc2nccc(-c3cc4ccccc4s3)n2)cc1)N1CCC(N2CCCC2)CC1` here?
A: < 0%

Q: Which “reduction in cell viability” value does the source give for `COC(=O)N1CCN(Cc2cccc(NC(=O)Nc3ccc(C)nc3)c2F)CC1` [Omecamtiv mecarbil] here?
A: < 0%

Q: Which “reduction in cell viability” value does the source give for `CCC1=C[C@@H]2CN(C1)Cc1c([nH]c3ccccc13)[C@@](C(=O)OC)(c1cc3c(cc1OC)N(C)[C@H]1[C@@](O)(C(=O)OC)[C@H](OC(C)=O)[C@]4(CC)C=CCN5CC[C@]31[C@@H]54)C2` [Vinorelbine tartrate] here?
A: 72.1%

Q: How did the “reduction in cell viability” value turn out when `CC(=O)Nc1cccc(-n2c(=O)n(C3CC3)c(=O)c3c(Nc4ccc(I)cc4F)n(C)c(=O)c(C)c32)c1` [Trametinib] was run?
A: 35.5%

Q: Which “reduction in cell viability” value does the source give for `CC(C)=CC[C@@H](O)C1=CC(=O)c2c(O)ccc(O)c2C1=O` [Shikonin] here?
A: < 0%
